Article PMC7645679

The chains behind the UniProt entries cited, without tags or fusion partners. Where a name states a change or a piece, a line headed by the entry shows the natural chain unless it says otherwise.
UniProt Q6A026: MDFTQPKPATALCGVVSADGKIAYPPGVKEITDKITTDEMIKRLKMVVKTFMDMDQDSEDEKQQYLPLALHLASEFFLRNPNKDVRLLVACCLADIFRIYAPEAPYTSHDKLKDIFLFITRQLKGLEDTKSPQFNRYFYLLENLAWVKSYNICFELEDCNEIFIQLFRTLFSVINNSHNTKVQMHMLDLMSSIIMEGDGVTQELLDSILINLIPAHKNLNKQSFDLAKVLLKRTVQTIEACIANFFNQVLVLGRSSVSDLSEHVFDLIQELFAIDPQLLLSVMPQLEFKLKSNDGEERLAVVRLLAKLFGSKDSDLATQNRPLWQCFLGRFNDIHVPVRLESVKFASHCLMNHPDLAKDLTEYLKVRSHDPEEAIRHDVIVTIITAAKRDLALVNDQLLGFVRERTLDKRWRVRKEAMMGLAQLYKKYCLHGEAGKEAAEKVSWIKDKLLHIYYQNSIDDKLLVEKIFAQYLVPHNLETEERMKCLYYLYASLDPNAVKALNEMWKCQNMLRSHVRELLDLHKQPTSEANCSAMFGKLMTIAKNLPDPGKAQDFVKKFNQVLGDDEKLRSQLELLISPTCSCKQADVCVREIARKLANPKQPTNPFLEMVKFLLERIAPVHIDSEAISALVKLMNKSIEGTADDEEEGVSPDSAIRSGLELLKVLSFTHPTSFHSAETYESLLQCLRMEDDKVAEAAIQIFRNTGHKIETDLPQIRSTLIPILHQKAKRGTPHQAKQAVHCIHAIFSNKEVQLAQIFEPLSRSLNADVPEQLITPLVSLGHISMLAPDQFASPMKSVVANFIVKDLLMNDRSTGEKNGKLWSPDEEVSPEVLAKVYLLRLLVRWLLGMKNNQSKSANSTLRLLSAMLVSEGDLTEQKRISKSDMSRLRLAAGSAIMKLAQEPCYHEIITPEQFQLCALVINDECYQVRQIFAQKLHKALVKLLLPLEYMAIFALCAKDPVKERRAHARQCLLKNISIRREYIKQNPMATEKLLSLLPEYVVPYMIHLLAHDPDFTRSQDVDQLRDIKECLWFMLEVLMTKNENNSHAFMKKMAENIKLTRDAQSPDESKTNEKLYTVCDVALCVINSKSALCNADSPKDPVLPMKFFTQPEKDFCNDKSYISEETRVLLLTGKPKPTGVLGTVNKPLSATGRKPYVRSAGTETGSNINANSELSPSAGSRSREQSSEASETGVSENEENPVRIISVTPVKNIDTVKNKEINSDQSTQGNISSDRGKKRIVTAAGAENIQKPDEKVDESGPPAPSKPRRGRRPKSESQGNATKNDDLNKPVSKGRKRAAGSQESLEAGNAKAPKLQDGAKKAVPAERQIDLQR

Biological target: T1, CTCF (mouse), GFP fusion tethered to the LacO array in the fluorescent three-hybrid assay (mouse) (UniProt Q61164)
T1 sequence: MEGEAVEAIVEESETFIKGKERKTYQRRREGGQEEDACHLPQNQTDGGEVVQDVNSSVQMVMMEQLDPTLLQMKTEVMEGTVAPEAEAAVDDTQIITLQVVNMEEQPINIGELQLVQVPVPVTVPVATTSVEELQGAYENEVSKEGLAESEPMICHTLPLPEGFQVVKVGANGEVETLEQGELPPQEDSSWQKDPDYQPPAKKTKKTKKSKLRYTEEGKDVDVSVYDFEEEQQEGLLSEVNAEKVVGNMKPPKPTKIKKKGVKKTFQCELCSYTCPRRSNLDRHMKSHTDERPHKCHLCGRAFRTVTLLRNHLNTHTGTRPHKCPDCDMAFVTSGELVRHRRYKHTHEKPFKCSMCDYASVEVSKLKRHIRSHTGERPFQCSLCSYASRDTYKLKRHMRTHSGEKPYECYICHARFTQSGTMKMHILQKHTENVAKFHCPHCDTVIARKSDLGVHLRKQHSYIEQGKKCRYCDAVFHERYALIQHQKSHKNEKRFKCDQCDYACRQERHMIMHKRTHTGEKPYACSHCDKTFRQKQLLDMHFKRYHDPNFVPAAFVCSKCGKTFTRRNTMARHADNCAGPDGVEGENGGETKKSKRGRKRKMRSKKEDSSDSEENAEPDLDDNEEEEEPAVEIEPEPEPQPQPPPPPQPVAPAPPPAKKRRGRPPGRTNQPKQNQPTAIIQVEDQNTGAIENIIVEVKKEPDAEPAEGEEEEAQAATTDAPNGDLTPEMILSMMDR
Test: fluorescent three-hybrid (F3H); GFP-tagged bait tethered to a LacO array by GFP nanobody–LacR in BHK-LacO cells; recruitment of mKate2-tagged prey read as Pearson correlation of green and red channels at the array; cells fixed 24 h after transfection

With “PDS5A with alanine substitution of the APEAP motif, mKate2 fusion (from UniProt Q6A026)” the binding was “no binding”.

No constants are given. Whether binding was seen depends on the method and setting. Tags and fused reporters may be left off the sequences shown.
